Measured values as given in paper PMC11188183.
Results are given in words; binding and its absence hold for the method and conditions named. Binding seen in cells or lysates may run through a third protein. Here binding means that the protein was enriched with, or labelled near, the bait; the list need not be complete. Blank lines part the entries; values can stand above or below the molecule they belong to.

By UniProt entry, the sequences of proteins in these tests, tags left out.
UniProt A5A3E0: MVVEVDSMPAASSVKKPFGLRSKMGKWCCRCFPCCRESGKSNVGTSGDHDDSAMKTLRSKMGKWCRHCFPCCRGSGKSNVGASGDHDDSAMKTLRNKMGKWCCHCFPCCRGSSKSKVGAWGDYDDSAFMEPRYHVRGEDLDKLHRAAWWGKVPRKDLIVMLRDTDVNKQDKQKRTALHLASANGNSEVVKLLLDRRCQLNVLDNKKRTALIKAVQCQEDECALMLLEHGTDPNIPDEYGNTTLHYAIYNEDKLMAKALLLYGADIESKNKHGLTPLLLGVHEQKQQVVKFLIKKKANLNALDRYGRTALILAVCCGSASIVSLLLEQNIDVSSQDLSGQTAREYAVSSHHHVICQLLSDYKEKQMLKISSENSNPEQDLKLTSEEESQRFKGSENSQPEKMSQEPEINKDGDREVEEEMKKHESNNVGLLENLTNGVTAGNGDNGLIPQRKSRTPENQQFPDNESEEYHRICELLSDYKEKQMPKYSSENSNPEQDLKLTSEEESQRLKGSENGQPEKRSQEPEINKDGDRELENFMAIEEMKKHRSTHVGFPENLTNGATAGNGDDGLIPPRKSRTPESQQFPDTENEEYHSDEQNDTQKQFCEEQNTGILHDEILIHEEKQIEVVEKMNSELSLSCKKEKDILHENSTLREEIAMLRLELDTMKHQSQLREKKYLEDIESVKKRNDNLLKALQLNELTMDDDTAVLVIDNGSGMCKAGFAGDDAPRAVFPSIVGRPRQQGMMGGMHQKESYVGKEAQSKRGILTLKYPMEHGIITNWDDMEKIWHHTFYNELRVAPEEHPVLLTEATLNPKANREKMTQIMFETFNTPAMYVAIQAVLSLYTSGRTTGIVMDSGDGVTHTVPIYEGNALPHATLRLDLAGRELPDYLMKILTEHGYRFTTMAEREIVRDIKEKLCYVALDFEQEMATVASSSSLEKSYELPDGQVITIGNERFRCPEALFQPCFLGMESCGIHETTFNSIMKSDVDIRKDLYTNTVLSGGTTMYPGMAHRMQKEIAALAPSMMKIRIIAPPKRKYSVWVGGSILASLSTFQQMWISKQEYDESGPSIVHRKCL
UniProt Q13885: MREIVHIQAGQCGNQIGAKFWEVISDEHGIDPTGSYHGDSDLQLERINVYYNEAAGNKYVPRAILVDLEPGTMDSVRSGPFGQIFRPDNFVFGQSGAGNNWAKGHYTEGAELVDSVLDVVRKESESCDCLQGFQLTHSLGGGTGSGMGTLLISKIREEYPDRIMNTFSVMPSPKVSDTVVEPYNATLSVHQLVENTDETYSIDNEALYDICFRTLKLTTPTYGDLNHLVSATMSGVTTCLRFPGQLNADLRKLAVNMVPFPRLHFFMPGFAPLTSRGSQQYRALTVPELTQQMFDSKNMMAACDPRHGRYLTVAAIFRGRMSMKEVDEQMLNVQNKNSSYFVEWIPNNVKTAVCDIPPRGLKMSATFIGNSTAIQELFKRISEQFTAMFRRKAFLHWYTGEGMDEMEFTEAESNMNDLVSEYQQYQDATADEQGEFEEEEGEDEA
UniProt P08779: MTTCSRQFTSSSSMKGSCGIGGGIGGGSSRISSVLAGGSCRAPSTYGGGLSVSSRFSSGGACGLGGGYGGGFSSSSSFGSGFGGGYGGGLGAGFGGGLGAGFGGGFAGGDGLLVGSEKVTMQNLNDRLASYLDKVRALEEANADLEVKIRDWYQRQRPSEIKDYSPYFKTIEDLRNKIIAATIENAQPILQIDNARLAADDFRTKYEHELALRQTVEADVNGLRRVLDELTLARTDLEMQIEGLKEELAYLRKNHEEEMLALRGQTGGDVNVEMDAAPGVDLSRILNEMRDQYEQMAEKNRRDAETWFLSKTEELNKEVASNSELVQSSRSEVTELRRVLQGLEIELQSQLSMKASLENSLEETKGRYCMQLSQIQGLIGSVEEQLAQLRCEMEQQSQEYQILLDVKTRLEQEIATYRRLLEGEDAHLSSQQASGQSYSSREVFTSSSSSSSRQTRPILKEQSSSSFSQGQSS
UniProt P68366: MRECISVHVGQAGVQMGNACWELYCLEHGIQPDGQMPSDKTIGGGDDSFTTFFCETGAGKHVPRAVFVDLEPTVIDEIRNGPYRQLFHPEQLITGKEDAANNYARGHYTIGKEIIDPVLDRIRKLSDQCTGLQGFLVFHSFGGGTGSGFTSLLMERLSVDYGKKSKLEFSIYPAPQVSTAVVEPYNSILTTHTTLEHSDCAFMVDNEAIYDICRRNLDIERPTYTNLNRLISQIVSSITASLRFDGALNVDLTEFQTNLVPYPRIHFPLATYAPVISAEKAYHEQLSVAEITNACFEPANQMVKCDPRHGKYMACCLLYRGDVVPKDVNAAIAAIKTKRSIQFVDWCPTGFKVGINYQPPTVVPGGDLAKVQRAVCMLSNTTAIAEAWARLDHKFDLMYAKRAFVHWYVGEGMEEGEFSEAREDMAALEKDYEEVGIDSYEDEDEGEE
UniProt P35749: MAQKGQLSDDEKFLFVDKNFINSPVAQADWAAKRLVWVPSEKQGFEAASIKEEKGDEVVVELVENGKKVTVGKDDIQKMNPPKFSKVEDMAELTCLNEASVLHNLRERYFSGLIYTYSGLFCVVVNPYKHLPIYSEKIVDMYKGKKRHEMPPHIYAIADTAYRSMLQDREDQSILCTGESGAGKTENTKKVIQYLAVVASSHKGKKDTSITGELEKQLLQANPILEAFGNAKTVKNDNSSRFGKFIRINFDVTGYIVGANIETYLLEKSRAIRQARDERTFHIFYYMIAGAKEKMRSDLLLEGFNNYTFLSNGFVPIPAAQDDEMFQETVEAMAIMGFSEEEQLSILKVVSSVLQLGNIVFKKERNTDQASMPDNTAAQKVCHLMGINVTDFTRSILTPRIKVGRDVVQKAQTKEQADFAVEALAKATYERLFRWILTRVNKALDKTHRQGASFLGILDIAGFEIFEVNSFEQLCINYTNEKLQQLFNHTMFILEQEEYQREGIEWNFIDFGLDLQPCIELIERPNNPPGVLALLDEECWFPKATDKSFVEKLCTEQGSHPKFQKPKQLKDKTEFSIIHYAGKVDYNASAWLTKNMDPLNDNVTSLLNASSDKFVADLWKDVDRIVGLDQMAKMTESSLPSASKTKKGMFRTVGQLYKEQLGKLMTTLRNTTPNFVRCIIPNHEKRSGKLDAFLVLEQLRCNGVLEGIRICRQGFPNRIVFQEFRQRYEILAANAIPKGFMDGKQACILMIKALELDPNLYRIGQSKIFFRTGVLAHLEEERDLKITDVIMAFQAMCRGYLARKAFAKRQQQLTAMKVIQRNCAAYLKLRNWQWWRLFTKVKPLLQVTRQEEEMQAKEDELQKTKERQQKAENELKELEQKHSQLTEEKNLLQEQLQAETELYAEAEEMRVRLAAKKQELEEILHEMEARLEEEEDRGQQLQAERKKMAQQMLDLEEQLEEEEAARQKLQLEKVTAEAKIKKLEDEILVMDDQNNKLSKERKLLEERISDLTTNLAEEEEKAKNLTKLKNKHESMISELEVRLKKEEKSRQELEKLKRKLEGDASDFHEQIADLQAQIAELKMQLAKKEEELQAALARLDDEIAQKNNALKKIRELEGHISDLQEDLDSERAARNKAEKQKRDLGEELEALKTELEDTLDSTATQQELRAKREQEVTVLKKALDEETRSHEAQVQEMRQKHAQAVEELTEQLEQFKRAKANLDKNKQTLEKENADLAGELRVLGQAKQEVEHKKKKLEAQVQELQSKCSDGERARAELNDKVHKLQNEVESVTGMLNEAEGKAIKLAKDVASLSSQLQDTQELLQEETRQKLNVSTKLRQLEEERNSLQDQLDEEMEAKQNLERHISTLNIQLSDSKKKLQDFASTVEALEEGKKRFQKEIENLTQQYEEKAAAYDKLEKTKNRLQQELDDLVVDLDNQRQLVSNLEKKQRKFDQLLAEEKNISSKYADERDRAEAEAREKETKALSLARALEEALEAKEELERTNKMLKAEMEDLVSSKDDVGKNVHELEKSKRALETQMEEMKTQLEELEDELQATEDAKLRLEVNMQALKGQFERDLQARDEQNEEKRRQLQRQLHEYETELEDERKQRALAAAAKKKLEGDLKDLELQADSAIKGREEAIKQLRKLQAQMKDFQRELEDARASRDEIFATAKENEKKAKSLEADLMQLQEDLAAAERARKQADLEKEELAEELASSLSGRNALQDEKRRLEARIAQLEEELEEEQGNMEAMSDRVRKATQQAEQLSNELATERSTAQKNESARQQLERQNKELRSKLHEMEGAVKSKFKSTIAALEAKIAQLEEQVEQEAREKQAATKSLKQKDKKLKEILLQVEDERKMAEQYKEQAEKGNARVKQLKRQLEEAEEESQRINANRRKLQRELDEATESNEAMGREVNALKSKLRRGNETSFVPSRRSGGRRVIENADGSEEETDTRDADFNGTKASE
UniProt P0DMV8: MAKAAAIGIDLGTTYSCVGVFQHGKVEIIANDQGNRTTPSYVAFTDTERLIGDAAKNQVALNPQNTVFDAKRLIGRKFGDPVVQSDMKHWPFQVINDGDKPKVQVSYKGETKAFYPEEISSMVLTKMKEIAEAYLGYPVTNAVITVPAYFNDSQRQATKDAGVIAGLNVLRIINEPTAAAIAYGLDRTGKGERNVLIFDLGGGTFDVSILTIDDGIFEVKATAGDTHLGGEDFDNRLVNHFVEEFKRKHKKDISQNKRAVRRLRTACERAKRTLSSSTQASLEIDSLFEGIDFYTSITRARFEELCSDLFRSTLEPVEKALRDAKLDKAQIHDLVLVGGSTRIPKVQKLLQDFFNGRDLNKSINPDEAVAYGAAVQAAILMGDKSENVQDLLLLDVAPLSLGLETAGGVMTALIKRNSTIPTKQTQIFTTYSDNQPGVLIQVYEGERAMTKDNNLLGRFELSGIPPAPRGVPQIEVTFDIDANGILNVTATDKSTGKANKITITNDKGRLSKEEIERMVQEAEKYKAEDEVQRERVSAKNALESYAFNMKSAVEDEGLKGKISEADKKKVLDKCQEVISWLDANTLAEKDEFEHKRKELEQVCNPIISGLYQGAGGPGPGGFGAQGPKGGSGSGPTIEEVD
UniProt P0DME0: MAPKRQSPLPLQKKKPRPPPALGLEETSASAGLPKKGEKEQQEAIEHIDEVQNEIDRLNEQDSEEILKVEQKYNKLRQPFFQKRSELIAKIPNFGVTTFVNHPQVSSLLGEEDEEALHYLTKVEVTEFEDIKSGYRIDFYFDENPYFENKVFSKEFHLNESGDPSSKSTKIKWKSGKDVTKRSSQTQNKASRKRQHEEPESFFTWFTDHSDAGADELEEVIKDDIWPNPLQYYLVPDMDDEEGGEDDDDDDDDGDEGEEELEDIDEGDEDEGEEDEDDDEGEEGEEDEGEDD
UniProt Q6ZMS4: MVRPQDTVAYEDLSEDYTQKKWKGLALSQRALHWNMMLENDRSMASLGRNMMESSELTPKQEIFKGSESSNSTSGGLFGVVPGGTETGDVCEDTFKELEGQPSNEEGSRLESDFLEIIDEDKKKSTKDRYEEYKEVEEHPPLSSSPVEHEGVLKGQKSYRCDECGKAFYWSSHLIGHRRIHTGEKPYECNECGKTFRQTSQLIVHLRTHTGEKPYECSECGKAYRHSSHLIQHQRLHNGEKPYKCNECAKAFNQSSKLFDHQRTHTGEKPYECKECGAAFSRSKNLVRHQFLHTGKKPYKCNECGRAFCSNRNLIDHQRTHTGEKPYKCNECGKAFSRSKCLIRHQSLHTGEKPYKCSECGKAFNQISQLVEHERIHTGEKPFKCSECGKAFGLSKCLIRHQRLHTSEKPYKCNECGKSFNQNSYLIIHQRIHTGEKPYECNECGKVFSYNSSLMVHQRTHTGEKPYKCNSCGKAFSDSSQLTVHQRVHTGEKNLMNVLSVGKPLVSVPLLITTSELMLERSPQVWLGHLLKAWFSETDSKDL
UniProt P48741: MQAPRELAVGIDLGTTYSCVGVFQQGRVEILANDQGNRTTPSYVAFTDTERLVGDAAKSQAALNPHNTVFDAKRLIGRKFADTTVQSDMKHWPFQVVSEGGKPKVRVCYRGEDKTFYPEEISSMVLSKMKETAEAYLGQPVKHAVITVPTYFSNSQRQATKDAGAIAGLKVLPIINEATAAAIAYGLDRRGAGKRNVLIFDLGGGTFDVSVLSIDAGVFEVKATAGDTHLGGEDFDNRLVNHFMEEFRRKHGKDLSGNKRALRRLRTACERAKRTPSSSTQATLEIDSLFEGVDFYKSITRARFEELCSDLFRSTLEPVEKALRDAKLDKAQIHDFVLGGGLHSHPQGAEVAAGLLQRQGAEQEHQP

Experiments:
[1] = target: T1, kinesin family member C1 (KIFC1) (human) (UniProt Q9BW19); assay: affinity purification with mass spectrometry; anti-KIFC1 antibody (Abcam ab172620) crosslinked to magnetic beads; nuclear lysate of HCC1806 (AA) cells; LC-MS/MS of the eluate
T1 sequence: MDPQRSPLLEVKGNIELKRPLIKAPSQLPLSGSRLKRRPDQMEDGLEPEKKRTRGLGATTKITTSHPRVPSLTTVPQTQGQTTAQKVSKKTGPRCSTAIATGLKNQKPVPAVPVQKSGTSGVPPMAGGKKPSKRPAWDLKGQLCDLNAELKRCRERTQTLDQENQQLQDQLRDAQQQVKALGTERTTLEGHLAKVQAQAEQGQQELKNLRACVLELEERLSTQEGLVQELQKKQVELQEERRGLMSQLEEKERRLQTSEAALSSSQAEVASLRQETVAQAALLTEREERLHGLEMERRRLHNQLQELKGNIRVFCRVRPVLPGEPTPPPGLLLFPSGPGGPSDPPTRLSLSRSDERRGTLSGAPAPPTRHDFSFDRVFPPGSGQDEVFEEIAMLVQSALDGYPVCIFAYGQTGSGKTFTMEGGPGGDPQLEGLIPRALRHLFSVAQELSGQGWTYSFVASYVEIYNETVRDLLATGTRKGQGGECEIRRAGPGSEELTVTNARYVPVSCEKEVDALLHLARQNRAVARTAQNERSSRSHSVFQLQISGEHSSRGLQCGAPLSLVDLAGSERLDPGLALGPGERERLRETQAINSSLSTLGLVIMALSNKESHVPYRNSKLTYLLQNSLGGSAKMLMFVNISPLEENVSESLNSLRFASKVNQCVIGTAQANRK

[2] = target: T1, kinesin family member C1 (KIFC1) (human); assay: affinity purification with mass spectrometry; anti-KIFC1 antibody (Abcam ab172620) crosslinked to magnetic beads; nuclear lysate of MDA-MB-468 (AA) cells; LC-MS/MS of the eluate

Molecule: POTEF_HUMAN (from UniProt A5A3E0 1-1075)
binding [1]: binds

Molecule: TBA3C_HUMAN (from UniProt P0DPH7 1-450)
binding [1]: binds
binding [2]: binds

Molecule: TBB2A_HUMAN (from UniProt Q13885 1-445)
binding [2]: binds

Molecule: ACTBM_HUMAN (from UniProt Q9BYX7 1-375)
binding [2]: binds

Molecule: TBA8_HUMAN (from UniProt Q9NY65 1-449)
binding [1]: binds

Molecule: K2C7_HUMAN (from UniProt P08729 1-469)
binding [1]: binds

Molecule: FLNA_HUMAN (from UniProt P21333 1-2647)
binding [1]: binds
binding [2]: binds

Molecule: K1C16_HUMAN (from UniProt P08779 1-473)
binding [1]: binds

Molecule: MYO6_HUMAN (from UniProt Q9UM54 1-1294)
binding [1]: binds
binding [2]: binds

Molecule: SPTB2_HUMAN (from UniProt Q01082 1-2364)
binding [2]: binds

Molecule: TBB2B_HUMAN (from UniProt Q9BVA1 1-445)
binding [2]: binds

Molecule: DDX21_HUMAN (from UniProt Q9NR30 1-783)
binding [2]: binds

Molecule: TBB6_HUMAN (from UniProt Q9BUF5 1-446)
binding [2]: binds

Molecule: POTEI_HUMAN (from UniProt P0CG38 1-1075)
binding [1]: binds

Molecule: TBA4A_HUMAN (from UniProt P68366 1-448)
binding [1]: binds

Molecule: TBB5_HUMAN (from UniProt P07437 1-444)
binding [2]: binds

Molecule: ALBU_HUMAN (from UniProt P02768 25-609)
binding [2]: binds

B2: K1C18_HUMAN (protein, UniProt P05783 1-430)
chain: MSFTTRSTFSTNYRSLGSVQAPSYGARPVSSAASVYAGAGGSGSRISVSRSTSFRGGMGSGGLATGIAGGLAGMGGIQNEKETMQSLNDRLASYLDRVRSLETENRRLESKIREHLEKKGPQVRDWSHYFKIIEDLRAQIFANTVDNARIVLQIDNARLAADDFRVKYETELAMRQSVENDIHGLRKVIDDTNITRLQLETEIEALKEELLFMKKNHEEEVKGLQAQIASSGLTVEVDAPKSQDLAKIMADIRAQYDELARKNREELDKYWSQQIEESTTVVTTQSAEVGAAETTLTELRRTVQSLEIDLDSMRNLKASLENSLREVEARYALQMEQLNGILLHLESELAQTRAEGQRQAQEYEALLNIKVKLEAEIATYRRLLEDGEDFNLGDALDSSNSMQTIQKTTTRRIVDGKVVSETNDTKVLRH
binding [2]: binds

B5: K1C13_HUMAN (protein, UniProt P13646 1-458)
chain: MSLRLQSSSASYGGGFGGGSCQLGGGRGVSTCSTRFVSGGSAGGYGGGVSCGFGGGAGSGFGGGYGGGLGGGYGGGLGGGFGGGFAGGFVDFGACDGGLLTGNEKITMQNLNDRLASYLEKVRALEEANADLEVKIRDWHLKQSPASPERDYSPYYKTIEELRDKILTATIENNRVILEIDNARLAADDFRLKYENELALRQSVEADINGLRRVLDELTLSKTDLEMQIESLNEELAYMKKNHEEEMKEFSNQVVGQVNVEMDATPGIDLTRVLAEMREQYEAMAERNRRDAEEWFHTKSAELNKEVSTNTAMIQTSKTEITELRRTLQGLEIELQSQLSMKAGLENTVAETECRYALQLQQIQGLISSIEAQLSELRSEMECQNQEYKMLLDIKTRLEQEIATYRSLLEGQDAKMIGFPSSAGSVSPRSTSVTTTSSASVTTTSNASGRRTSDVRRP
binding [1]: binds

Now from value to molecule:

binding [1]: binds
binding [2]: binds
Molecule: TBA1C_HUMAN (from UniProt Q9BQE3 1-449)

binding [1]: binds
binding [2]: binds
Molecule: MYH14_HUMAN (from UniProt Q7Z406 1-1995)

binding [2]: binds
Molecule: TBB4B_HUMAN (from UniProt P68371 1-445)

binding [2]: binds
Molecule: TBB4A_HUMAN (from UniProt P04350 1-444)

binding [2]: binds
Molecule: TBB3_HUMAN (from UniProt Q13509 1-450)

binding [1]: binds
binding [2]: binds
Molecule: MYO1B_HUMAN (from UniProt O43795 1-1136)

binding [1]: binds
Molecule: POTEJ_HUMAN (from UniProt P0CG39 1-1038)

binding [1]: binds
Molecule: K2C75_HUMAN (from UniProt O95678 1-551)

binding [2]: binds
Molecule: MYH11_HUMAN (from UniProt P35749 1-1972)

binding [1]: binds
Molecule: K1C15_HUMAN (from UniProt P19012 1-456)

binding [2]: binds
Molecule: ACTBL_HUMAN (from UniProt Q562R1 1-376)

binding [1]: binds
Molecule: HS71A_HUMAN (from UniProt P0DMV8 1-641)

binding [1]: binds
Molecule: SETLP_HUMAN (from UniProt P0DME0 1-292)

binding [1]: binds
Molecule: LMNA_HUMAN (from UniProt P02545 1-646)

binding [2]: binds
Molecule: GRP75_HUMAN (from UniProt P38646 47-679)

binding [1]: binds
Molecule: HNRH1_HUMAN (from UniProt P31943 1-449)

binding [2]: binds
Molecule: ZN852_HUMAN (from UniProt Q6ZMS4 1-543)

binding [2]: binds
Molecule: HSP77_HUMAN (from UniProt P48741 1-367)

binding [1]: binds
B1: LAD1_HUMAN (protein, UniProt O00515 1-517)
chain: MAVSRKDWSALSSLARQRTLEDEEEQERERRRRHRNLSSTTDDEAPRLSQNGDRQASASERLPSVEEAEVPKPLPPASKDEDEDIQSILRTRQERRQRRQVVEAAQAPIQERLEAEEGRNSLSPVQATQKPLVSKKELEIPPRRRLSREQRGPWALEEESLVGREPEERKKGVPEKSPVLEKSSMPKKTAPEKSLVSDKTSISEKVLASEKTSLSEKIAVSEKRNSSEKKSVLEKTSVSEKSLAPGMALGSGRRLVSEKASIFEKALASEKSPTADAKPAPKRATASEQPLAQEPPASGGSPATTKEQRGRALPGKNLPSLAKQGASDPPTVASRLPPVTLQVKIPSKEEEADMSSPTQRTYSSSLKRSSPRTISFRMKPKKENSETTLTRSASMKLPDNTVKLGEKLERYHTAIRRSESVKSRGLPCTELFVAPVGVASKRHLFEKELAGQSRAEPASSRKENLRLSGVVTSRLNLWISRTQESGDQDPQEAQKASSATERTQWGQKSDSSLDAEV

binding [2]: binds
B3: CCNK_HUMAN (protein, UniProt O75909 1-580)
chain: MKENKENSSPSVTSANLDHTKPCWYWDKKDLAHTPSQLEGLDPATEARYRREGARFIFDVGTRLGLHYDTLATGIIYFHRFYMFHSFKQFPRYVTGACCLFLAGKVEETPKKCKDIIKTARSLLNDVQFGQFGDDPKEEVMVLERILLQTIKFDLQVEHPYQFLLKYAKQLKGDKNKIQKLVQMAWTFVNDSLCTTLSLQWEPEIIAVAVMYLAGRLCKFEIQEWTSKPMYRRWWEQFVQDVPVDVLEDICHQILDLYSQGKQQMPHHTPHQLQQPPSLQPTPQVPQVQQSQPSQSSEPSQPQQKDPQQPAQQQQPAQQPKKPSPQPSSPRQVKRAVVVSPKEENKAAEPPPPKIPKIETTHPPLPPAHPPPDRKPPLAAALGEAEPPGPVDATDLPKVQIPPPAHPAPVHQPPPLPHRPPPPPPSSYMTGMSTTSSYMSGEGYQSLQSMMKTEGPSYGALPPAYGPPAHLPYHPHVYPPNPPPPPVPPPPASFPPPAIPPPTPGYPPPPPTYNPNFPPPPPRLPPTHAVPPHPPPGLGLPPASYPPPAVPPGGQPPVPPPIPPPGMPPVGGLGRAAWMR

binding [1]: binds
B4: ANX10_HUMAN (protein, UniProt Q9UJ72 1-324)
chain: MFCGDYVQGTIFPAPNFNPIMDAQMLGGALQGFDCDKDMLINILTQRCNAQRMMIAEAYQSMYGRDLIGDMREQLSDHFKDVMAGLMYPPPLYDAHELWHAMKGVGTDENCLIEILASRTNGEIFQMREAYCLQYSNNLQEDIYSETSGHFRDTLMNLVQGTREEGYTDPAMAAQDAMVLWEACQQKTGEHKTMLQMILCNKSYQQLRLVFQEFQNISGQDMVDAINECYDGYFQELLVAIVLCVRDKPAYFAYRLYSAIHDFGFHNKTVIRILIARSEIDLLTIRKRYKERYGKSLFHDIRNFASGHYKKALLAICAGDAEDY
